The target of assay [1] is T1, recombinant GST-HDA19 (Arabidopsis thaliana) (UniProt O22446).
T1 sequence (looked up): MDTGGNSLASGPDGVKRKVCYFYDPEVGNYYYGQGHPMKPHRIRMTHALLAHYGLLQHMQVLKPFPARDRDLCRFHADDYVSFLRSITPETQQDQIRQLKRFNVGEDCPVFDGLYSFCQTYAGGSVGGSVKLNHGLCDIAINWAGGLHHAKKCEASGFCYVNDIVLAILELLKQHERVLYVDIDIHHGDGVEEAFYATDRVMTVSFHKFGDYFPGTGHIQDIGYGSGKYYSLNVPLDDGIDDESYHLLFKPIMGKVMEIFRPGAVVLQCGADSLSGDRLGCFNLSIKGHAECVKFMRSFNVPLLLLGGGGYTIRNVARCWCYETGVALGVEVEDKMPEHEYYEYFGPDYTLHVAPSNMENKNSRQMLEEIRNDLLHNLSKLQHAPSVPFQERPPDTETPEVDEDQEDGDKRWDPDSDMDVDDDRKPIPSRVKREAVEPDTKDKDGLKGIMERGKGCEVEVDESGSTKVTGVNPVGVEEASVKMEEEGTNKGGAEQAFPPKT
Put plainly: GST pull-down from nuclei-enriched plant protein samples, anti-HDC1 Western blot. On the technique in general: Immunoblotting shows a protein as a band on a membrane.

Assay [2] addresses T2, recombinant GST-HDA6 (Arabidopsis thaliana) (UniProt Q9FML2).
T2 sequence (looked up): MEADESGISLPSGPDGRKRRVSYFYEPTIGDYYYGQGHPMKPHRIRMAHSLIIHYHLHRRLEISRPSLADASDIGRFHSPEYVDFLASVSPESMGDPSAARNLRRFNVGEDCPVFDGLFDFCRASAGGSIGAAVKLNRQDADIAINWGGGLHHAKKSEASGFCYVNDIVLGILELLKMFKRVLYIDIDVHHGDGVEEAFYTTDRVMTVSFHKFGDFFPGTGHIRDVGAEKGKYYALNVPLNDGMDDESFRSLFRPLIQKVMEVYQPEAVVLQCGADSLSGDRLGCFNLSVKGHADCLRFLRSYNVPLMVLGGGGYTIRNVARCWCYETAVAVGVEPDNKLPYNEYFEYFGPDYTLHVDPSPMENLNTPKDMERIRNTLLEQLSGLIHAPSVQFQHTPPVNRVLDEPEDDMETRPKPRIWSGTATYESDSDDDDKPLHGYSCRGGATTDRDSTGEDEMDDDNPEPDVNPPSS
Described as above.

In assay [3] the target is T1, recombinant GST-HDA19 (Arabidopsis thaliana). Put plainly: in-vitro GST pull-down of recombinant HDC1-His with GST-HDA19, anti-His Western blot.
Assay [4] deals with T2, recombinant GST-HDA6 (Arabidopsis thaliana). Put plainly: in-vitro GST pull-down of recombinant HDC1-His with GST-HDA6, anti-His Western blot.

These are yes or no findings as the source states them, for the method shown. In cells and extracts the contact can be indirect. Some entries that bind do so weakly or less than the wild type. Sequences can lack the tags named with a protein.

B1: native HDC1 from nuclei-enriched protein samples of A. thaliana wildtype plants (protein)
chain: MSGVPKRSHEEGVTHPSSSSSVAKYPHEDSGSYPKSPHQPVTPPPAQVHHNHQQPHQHPQSQSQSQPQPHLQALPHPHSHSHSHSPLAAAASASAPYEVESRTVVKVARSEPRDGERRSPLPLVYRSPSLPTTVSSSDPHLTHAPVPMEPRDGAKDGREIRVESRENRSDGREIYGETKREIQGPKGDRDVKFERSVDDFSGKGNTGSYTRNDGREMYGETKREIQGPKSDRDAKFERPGDDFSGKSNAGSYTRDTKFDRENQNYNEQKGEIKMEKEGHAHLAWKEQKDYHRGKRVAEGSTANVDPWVVSRGNPQGPTEVGPKDLSAPVEGSHLEGRETVGENKVDAKNEDRFKEKDKKRKELKHREWGDRDKDRNDRRVSVLVGSVMSEPKEIGREERESDRWERERMEQKDRERNKEKDKDHIKREPRTGAEKEISQNEKELGEASAKPSEQEYVAPEQKKQNEPDNCEKDERETKEKRRERDGDSEAERAEKRSRISEKESEDGCLEGEGATEREKDAFNYGVQQRKRALRPRGSPQTTNRDNVRSRSQDNEGVQGKSEVSIVVYKVGECMQELIKLWKEYDLSHPDKSGDFANNGPTLEVRIPAEHVTATNRQVRGGQLWGTDIYTDDSDLVAVLMHTGYCRPTASPPPPTMQELRTTIRVLPSQDYYTSKLRNNVRSRAWGAGIGCSYRVERCYILKKGGGTIELEPSLTHSSTVEPTLAPMAVERSMTTRAAASNALRQQRFVREVTIQYNLCNEPWIKYSISIVADKGLKKPLFTSARLKKGEVLYLETHSCRYELCFAGEKTIKAIQASQQQSSHEAMETDNNNNKSQNHLTNGDKTDSDNSLIDVFRWSRCKKPLPQKLMRSIGFPLPADHIEVLEENLDWEDVQWSQTGVWIAGKEYTLARVHFLSPN
Regarding B1, the binding result in assay [1] and in assay [2] was “binds” throughout.

B2: recombinant HDC1-His (protein, not shown: small tags and cut ends)
chain: B1 chain
For B2, the binding entry in assay [3] and in assay [4] was “binds” throughout.

(Values after patent US20180037903A1, “METHODS AND MEANS FOR INCREASING STRESS TOLERANCE AND BIOMASS IN PLANTS” (THE UNIVERSITY COURT OF THE UNIVERSITY OF GLASGOW, priority 2013, published 2018).)
